# Laboratory results reported in article PMC5736539.
# Amino acid sequences for entries named in this document (tags omitted). A change or cut given only in a name is not applied to a line headed by its entry.
# UniProt P54578: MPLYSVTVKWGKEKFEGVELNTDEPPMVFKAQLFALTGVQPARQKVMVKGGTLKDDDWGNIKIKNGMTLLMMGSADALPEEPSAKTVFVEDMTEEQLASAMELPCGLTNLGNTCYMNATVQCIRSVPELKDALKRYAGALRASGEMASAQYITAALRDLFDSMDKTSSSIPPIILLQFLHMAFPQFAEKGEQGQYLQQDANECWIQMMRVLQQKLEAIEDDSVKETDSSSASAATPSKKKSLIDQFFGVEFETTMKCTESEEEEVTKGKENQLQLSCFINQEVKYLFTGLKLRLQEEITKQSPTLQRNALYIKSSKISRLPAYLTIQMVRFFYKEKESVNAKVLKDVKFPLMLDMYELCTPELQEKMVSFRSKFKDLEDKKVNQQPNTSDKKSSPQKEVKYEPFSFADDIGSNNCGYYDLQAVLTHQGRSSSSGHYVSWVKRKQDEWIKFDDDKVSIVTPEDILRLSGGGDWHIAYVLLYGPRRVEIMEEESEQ
# UniProt Q14457: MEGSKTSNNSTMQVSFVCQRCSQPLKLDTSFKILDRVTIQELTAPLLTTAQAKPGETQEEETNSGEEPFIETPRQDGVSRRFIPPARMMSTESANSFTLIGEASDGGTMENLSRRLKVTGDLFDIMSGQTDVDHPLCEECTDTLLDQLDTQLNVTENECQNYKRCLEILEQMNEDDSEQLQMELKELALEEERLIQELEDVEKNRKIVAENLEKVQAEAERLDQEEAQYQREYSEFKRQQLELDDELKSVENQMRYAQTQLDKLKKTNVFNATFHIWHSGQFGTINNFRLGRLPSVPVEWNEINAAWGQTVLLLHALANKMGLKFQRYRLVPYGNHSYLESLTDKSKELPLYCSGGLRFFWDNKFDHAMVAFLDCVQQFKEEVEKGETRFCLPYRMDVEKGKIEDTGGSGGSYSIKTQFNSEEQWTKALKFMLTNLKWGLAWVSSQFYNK
# No constants are given. Whether binding was seen depends on the method and setting. In cells and extracts the contact can be indirect. Some entries that bind do so weakly or less than the wild type.
# Target: Flag-tagged USP14 (ubiquitin-specific protease 14) (UniProt P54578)
# Assay: co-IP; HEK293T co-transfected, extracted 38 h after transfection; IP with anti-Flag antibody (Flag-USP14 or Flag-TRAF6 as bait), western blot (Figures 1B, 1E)
row,Substance,binding
1,Myc-tagged Beclin 1 1-127 (from UniProt Q14457 1-127) (domain or fragment),no binding
2,Myc-tagged Beclin 1 wild type (from UniProt Q14457 1-450),binds
